B1: il10ra_site1_normal_mot_HHH_b2_00984_000000042_0001_1_20_H_._HHH_b1_08340_af2_0001_0000300017_0000001_0 (protein)
chain: SSSSDELEERIRELLEELEELVREGDEEAVSELALEIIRLLFELGNPELLHELWRLILSARSSSS
B2: il10ra_site1_sap_24_mot_HHH_b1_01307_000000115_0001_1_18_H_._HHH_b1_01868_af2_0001_0000100001_0000001_0_0001 (protein)
chain: SSSSSSSDFLEAIKEALHKLFRLGDEEAMHELWRLAKEIVKEGDPELREELKELVEELSSSSSSS
B3: il10ra_site1_sap_28_mot_HHH_b1_03314_af2_000000278_0001_42_55_H_._fa9d0efb6cdfa3d48f532c1d34b61b18_0001_af2_0001_0000800030_0000001_0_0001 (protein)
chain: SSSNVEEMVRTALMSVEIAYENNNPEYIEIALRFVRHILENHKDPEVEELLEEIEELLRRLSSSS
B4: il10ra_site1_normal_mot_HHH_b1_05326_000000242_0001_1_20_H_._HHH_b2_05084_af2_0001_0000700029_0000001_0 (protein)
chain: SSSSDEIIERALKLSVEAFRLALRGNPEEAEELLQEALELAREAGNPQLAEQIEILLETLGSSSS
B5: il10ra_site1_normal_mot_HHH_b2_04057_000000065_0001_1_20_H_._HHH_b1_01132_0001_0000100014_0000001_0 (protein)
chain: SSSSDERLEELLKELEELLKEGDSDEFYKVLRELIELARELNDQEVQRELLEILRRFLEQSSSSS
B6: il10ra_site1_sap_16_mot_8756ee2cf497b5429c717dfc0c0bcfd6_0001_000000186_0001_1_13_H_._HHH_b2_03216_af2_0001_0000500013_0000002_0_0001_af2pred_0001 (protein)
chain: SSSSSTEKFRIAVRFDARLLEVAKTEEQRRQVERAMELMKELVSEELQEELEEVLRELRSSSSSS
B7: il10ra_site1_normal_mot_HHH_b1_06789_af2_000000041_0001_1_20_H_._HHH_b2_03542_af2_0001_0000300009_0000001_0 (protein)
chain: SSSSDAVEFLIKQALKAIKIAIERGDEEVFEHALEIARRAIEQANDPEAEEILEELEREFKSSSS
B8: il10ra_site1_normal_mot_HHH_b2_04186_af2_000000278_0001_1_19_H_._HHH_b1_04260_0001_0000300022_0000001_0 (protein)
chain: SSSSDVRQEVLELVLEAFRLLLRGNEERARELLERALELAEELGDERLFRIIEDQLEILGSSSSS
B9: il10ra_site1_normal_mot_HHH_b1_06348_000000162_0001_1_15_H_._HHH_b1_03022_0001_0000100005_0000001_0 (protein)
chain: SSSSSEEAEELYRILRRVAELEFEGNPEEARELLEEAEELAREAGNFAFLANIEFMLRRLNSSSS
B10: il10ra_site1_sap_22_mot_HHH_b2_08231_af2_000000290_0001_1_18_H_._HHH_b1_03552_af2_0001_0000200004_0000002_0_0001_af2pred_0001 (protein)
chain: SSSSDEDEERLELTLRLVQFLLEQGSEEAARLLLEILRELAERANDEEIKEEIERLEELVNSSSS
B11: il10ra_site1_normal_mot_8756ee2cf497b5429c717dfc0c0bcfd6_0001_000000186_0001_1_13_H_._HHH_b2_01502_0001_0000100015_0000001_0_af2pred_0001 (protein)
chain: SSSSSSKRELLRKIAEALAEGDEEKAEELLEEAEELAKELGDLNFKALVEFAREILERLRSSSSS
B12: il10ra_site1_sap_27_mot_HHH_b1_01886_000000262_0001_1_18_H_._HHH_b2_00363_0001_0000300047_0000001_0_0001 (protein)
chain: SSSSDSEVAELLFEAVRLLFEGNPEEARKVVEEAEELAEELGDDELQRYVEIVKHFVEAQSSSSS
B13: il10ra_site1_normal_mot_HHH_b1_06914_000000280_0001_1_18_H_._HHH_b1_01011_0001_0000100001_0000002_0 (protein)
chain: SSSSDEEEEIFEEAEERAEELARRGDPERAAHILYRASRLLLELGDYELAHRLIELLVRLSSSSS
B14: il10ra_site1_normal_mot_8756ee2cf497b5429c717dfc0c0bcfd6_0001_000000186_0001_1_13_H_._HHH_b2_00624_0001_0000700066_0000001_0_af2pred_0001 (protein)
chain: SSSSSEEQEELFRLLRRAAELHHEGNPEEARELLEEAEELAREAGDLVAEAVIRYMLKLAGSSSS
B15: il10ra_site1_normal_mot_HHH_b2_02337_000000026_0001_38_52_H_._HHH_b1_06864_0001_0000200017_0000001_0 (protein)
chain: SSSSDLEEEIEELIRELERLLEEGDQEKFAEVAQRVVQLIYEAGDPELLKLVWEIVQRFASSSSS
B16: il10ra_site1_sap_15_mot_HHH_b1_04704_af2_000000076_0001_43_57_H_._HHH_b2_05371_0001_0000400025_0000001_0_0001_af2pred_0001 (protein)
chain: SSSSNKEEDVRSALKAAELAAEAGDEETVKRALKIAELSAEQSNDPELEREVRELEEKFESSSSS
B17: il10ra_site1_sap_18_mot_39ab2cb694c8b9c1dc7e65c0d672c93e_0001_000000036_0001_53_65_H_._HHH_b2_07044_af2_0001_0000600014_0000001_0_0001 (protein)
chain: SSSSDEYVELSIKFARWLIEAGDLEAARRILEAAAEIAERDNNPELLEEIRELIEQVEELGSSSS
B18: il10ra_site1_normal_mot_b26a303360aa2756ef5b79665ce52f45_0001_000000179_0001_1_11_H_._HHH_b2_00938_0001_0000300021_0000002_0_af2pred_0001 (protein)
chain: SSSSSESARIAREVAEEVAKLREEGDEEKAEELLEEALKRLEELNNPVAATNIRHALKVLRSSSS
B19: il10ra_site1_normal_mot_1cde5897893f3d1588f92be3b001cdf2_0001_af2_000000130_0001_54_65_H_._HHH_b2_06867_0001_0000600034_0000001_0_af2pred_0001 (protein)
chain: SSSSSSDEYREEVEELLEEARENPETASQLILEAARLAAEGNDPEALRLVLEFLKERFSSSSSSS
B20: il10ra_site1_sap_19_mot_HHH_b2_02053_af2_000000006_0001_3_19_H_._HHH_b1_08256_0001_0000100005_0000001_0_0001 (protein)
chain: SSSSSEIEEEVRELLKQAEELAEEGDPEEAAKVLQEATHLAIQAQDPELLRLVWEVVKKISSSSS
B21: il10ra_site1_sap_11_mot_HHH_b1_05789_000000283_0001_1_15_H_._HHH_b1_00584_0001_0000300024_0000001_1_0001_af2pred_dldesign_0_af2pred (protein)
chain: SSSSSAYKLLTEQALRAARLAAEAGDADAVAKALAIARQLAENAKDPELLARVEAERARLSSSSS
B22: il10ra_site1_sap_13_mot_HHH_b2_00277_af2_000000172_0001_1_17_H_._c0e252e6bbbdd727933fd7c9c1d8be2d_0001_0001_0000200010_0000001_0_0001 (protein)
chain: SSSSEEREVVELAFRAVRLLAHGNPEEARKVLEEAKELAEELNDEELQRYVEIALHFVEAHSSSS
B23: il10ra_site1_normal_mot_ems_3hM_235_000000244_0001_46_64_H_._HHH_b1_03428_af2_0001_0000400027_0000001_0 (protein)
chain: SSSSSDLERIWELSRRALELAANGNPEEAEELVREAHEIAEEAGDPALEFIVRALERRVRSSSSS
B24: il10ra_site1_normal_mot_HHH_b2_00475_000000107_0001_44_57_H_._HHH_b1_07089_af2_0001_0000100001_0000001_0 (protein)
chain: SSSSDEQEVAELIFRAVRLIAEGNLEEAEELLKEAEKIARENNDEELEEYVKIAEHFVRAHSSSS

These results are taken from paper PMC10163288.

Some of the results follow.

This experiment deals with il10ra, Q13651. The experiment in a line: yeast display titration.
As usually defined, the apparent Kd is a dissociation constant that holds for the conditions of the assay. Turning to B1, the “apparent Kd” value was “inactive: no binding seen”.

On to B2, for which the “apparent Kd” value is “inactive: no binding seen”.

As for B3, the “apparent Kd” value was “inactive: no binding seen”.

For the molecule B4, the “apparent Kd” value is “inactive: no binding seen”.

For the molecule B5, the “apparent Kd” value is “inactive: no binding seen”.

For B6, the “apparent Kd” value is “inactive: no binding seen”.

For B7, the “apparent Kd” value is “inactive: no binding seen”.

Turning to B8, the “apparent Kd” value was “inactive: no binding seen”.

On to B9, for which the “apparent Kd” value was “inactive: no binding seen”.

In the case of B10, the “apparent Kd” value was “inactive: no binding seen”.

In the case of B11, the “apparent Kd” value was “inactive: no binding seen”.

For the molecule B12, the “apparent Kd” value was “inactive: no binding seen”.

Take B13: the apparent Kd was inactive: > 2.95 µM.

Consider B14, for which the “apparent Kd” value is “inactive: no binding seen”.

In the case of B15, the “apparent Kd” value was “inactive: no binding seen”.

On to B16, for which the “apparent Kd” value is “inactive: no binding seen”.

Regarding B17, the “apparent Kd” value was “inactive: no binding seen”.

For B18, the “apparent Kd” value is “inactive: no binding seen”.

Consider B19, for which the “apparent Kd” value was “inactive: no binding seen”.

As to B20, the “apparent Kd” value was “inactive: no binding seen”.

On to B21, for which the “apparent Kd” value was “inactive: no binding seen”.

On to B22, for which the “apparent Kd” value is “inactive: no binding seen”.

As for B23, the “apparent Kd” value is “inactive: no binding seen”.

For the molecule B24, the “apparent Kd” value is “inactive: no binding seen”.
